Experimental data: PubChem BioAssay AID1159584 (Peter MacCallum Cancer Centre, 2016)
Shown is a random part of about 18,000 reagents. Not given: the amount of reagent, the time to read-out.

Assay: 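Genes whose loss is lethal only together with E-cadherin loss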 (primary screen)
Cells: human MCF10A breast epithelial cells, parental and CDH1-null
Reagent: siRNA against human genes
Measurement: 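ATP luminescence (CellTiter-Glo) viability per line relative to mean mock wells over all plates, and the ratio of CDH1-null to parental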
Direction: CDH1-null / parental viability ratio: higher = CDH1-null cells survive relatively better than parental; CDH1-null viability vs mock: higher = more viable CDH1-null cells; parental viability vs mock: higher = more viable parental cells

| gene | CDH1-null / parental viability ratio | CDH1-null viability vs mock (fraction of mock) | parental viability vs mock (fraction of mock) |
| --- | --- | --- | --- |
| SHE | 0.86 | 0.76 | 0.88 |
| ZNF549 | 1.14 | 0.97 | 0.85 |
| E2F3 | 0.93 | 0.83 | 0.89 |
| SLC34A2 | 1.1 | 0.95 | 0.86 |
| AMIGO3 | 0.82 | 0.54 | 0.66 |
| IGF2BP2 | 1.16 | 0.8 | 0.69 |
| FAM47A | 1.09 | 0.74 | 0.68 |
| CACNB1 | 1.29 | 0.62 | 0.48 |
| BRD2 | 1.06 | 0.85 | 0.8 |
| BLVRB | 1.01 | 0.99 | 0.98 |
| SNU13 | 1.21 | 0.86 | 0.71 |
| TMEM17 | 0.87 | 0.7 | 0.8 |
| FHIP2B | 1.29 | 0.9 | 0.7 |
| EIF1AD | 1.07 | 1.1 | 1.03 |
| GPR142 | 1.36 | 0.98 | 0.72 |
| KLHL31 | 0.96 | 0.79 | 0.82 |
| MRPL33 | 1.18 | 1 | 0.85 |
| LMNTD2 | 0.87 | 0.61 | 0.7 |
| PSMG2 | 1.05 | 0.68 | 0.65 |
| B3GNT8 | 1.08 | 0.68 | 0.63 |
| SHISAL2A | 0.83 | 0.44 | 0.53 |
| MPP1 | 1.2 | 1.01 | 0.84 |
| NSG2 | 0.79 | 0.53 | 0.67 |
| SPCS2 | 1.01 | 0.75 | 0.74 |
| FAM81B | 1.01 | 0.83 | 0.82 |
| TUBA3D | 0.89 | 0.66 | 0.74 |
| HEPACAM | 0.88 | 0.44 | 0.5 |
| MGAT2 | 0.9 | 0.7 | 0.78 |
| SIRPD | 1.11 | 0.8 | 0.72 |
| LRRC2 | 0.98 | 0.96 | 0.98 |
| SINHCAF | 1.17 | 0.88 | 0.75 |
| NDUFAF5 | 1.21 | 1.14 | 0.94 |
| PACRG | 0.77 | 0.27 | 0.35 |
| ECI2 | 1.14 | 0.82 | 0.72 |
| GRIN2B | 1.17 | 1.22 | 1.04 |
| TUBB1 | 0.8 | 0.53 | 0.66 |
| BDH1 | 1.22 | 1.29 | 1.06 |
| IRGC | 1 | 0.82 | 0.82 |
| HSD3B1 | 0.87 | 0.69 | 0.79 |
| CSF2RA | 0.82 | 0.8 | 0.98 |
| LYRM7 | 1.03 | 0.74 | 0.72 |
| RUFY1 | 0.98 | 0.98 | 1 |
| PLA2G12A | 0.84 | 0.73 | 0.87 |
| MCM8 | 1 | 0.93 | 0.93 |
| SLC44A4 | 0.85 | 0.74 | 0.87 |
| TBCD | 1.04 | 0.76 | 0.73 |
| BAG1 | 0.87 | 0.72 | 0.83 |
| HELQ | 0.99 | 0.87 | 0.88 |

4 entries from above, ordered by “parental viability vs mock (fraction of mock)”, low to high.
| gene | CDH1-null / parental viability ratio | CDH1-null viability vs mock (fraction of mock) | parental viability vs mock (fraction of mock) |
| --- | --- | --- | --- |
| SIRPD | 1.11 | 0.8 | 0.72 |
| SINHCAF | 1.17 | 0.88 | 0.75 |
| NDUFAF5 | 1.21 | 1.14 | 0.94 |
| LRRC2 | 0.98 | 0.96 | 0.98 |

Further entries:
| gene | CDH1-null / parental viability ratio | CDH1-null viability vs mock (fraction of mock) | parental viability vs mock (fraction of mock) |
| --- | --- | --- | --- |
| IKZF2 | 1.19 | 0.88 | 0.74 |
| SMIM29 | 0.9 | 0.76 | 0.84 |
| LLGL2 | 1.04 | 0.76 | 0.73 |
| GALNTL5 | 0.72 | 0.58 | 0.8 |
| ACE | 0.79 | 0.64 | 0.81 |
| RPS6KC1 | 1.04 | 0.73 | 0.7 |
| MACROD2 | 1.22 | 1.07 | 0.88 |
| ODF2 | 1.17 | 1.12 | 0.96 |
| CCR5 | 0.91 | 0.91 | 1 |
| KLRA1P | 0.9 | 0.7 | 0.78 |
| DMAC1 | 0.87 | 0.78 | 0.9 |
| CLCA4 | 1.59 | 1.29 | 0.81 |
| SLC5A9 | 1 | 0.8 | 0.8 |
| KLHDC7B | 1.13 | 0.71 | 0.63 |
| ABCB9 | 1.09 | 1.02 | 0.94 |
| RERGL | 0.85 | 0.68 | 0.8 |
| PARVB | 0.92 | 0.71 | 0.77 |
| SQLE | 1 | 0.7 | 0.7 |
| ACKR2 | 1.08 | 0.85 | 0.79 |
| SMIM8 | 1.04 | 0.58 | 0.56 |
| NUPR1 | 0.64 | 0.5 | 0.78 |
| SERPING1 | 0.97 | 0.6 | 0.62 |
| PNRC2 | 1.13 | 1.04 | 0.92 |
| VWA1 | 1.23 | 0.9 | 0.73 |
| KRIT1 | 0.92 | 0.83 | 0.9 |
| TMEM161B | 0.86 | 0.86 | 1 |
| ACSM3 | 1.04 | 1 | 0.96 |
| ITSN1 | 1.03 | 0.62 | 0.6 |
| RXRB | 0.85 | 0.8 | 0.94 |
| RAB11FIP4 | 1.19 | 0.75 | 0.63 |
| EWSR1 | 0.9 | 0.88 | 0.98 |
| LAMP3 | 0.65 | 0.44 | 0.68 |
| CDKN2AIP | 0.94 | 0.96 | 1.02 |
| PAN3 | 1.15 | 0.97 | 0.84 |
| CCDC121 | 0.74 | 0.68 | 0.92 |
| FOXO4 | 1.12 | 1.12 | 1 |
| RNF40 | 0.83 | 0.58 | 0.7 |
| ARMC12 | 0.9 | 0.72 | 0.8 |
| MGAT5B | 1.14 | 0.66 | 0.58 |
